Results as given in patent publication US20200172486A1, “PYRIDONE COMPOUNDS AND AGRICULTURAL AND HORTICULTURAL FUNGICIDES CONTAINING THE SAME AS ACTIVE INGREDIENTS” (MITSUI CHEMICALS AGRO, INC., priority 2017, published 2020).
Some of these results come from one statement about several compounds together. For at least one compound, name, drawing or mass did not settle the structure.

Key:
[1] = system: gray mold fungi (Botrytis cinerea); experiment: Test Example B: tomato gray mold, spray test on potted tomato plants; conditions: tomato (Oogata Fukuju), 250 ppm spray 2.5 ml/pot before inoculation, 2 to 3 days after inoculation
[2] = system: grape downy mildew fungus (Plasmopara viticola); experiment: Test Example G: grape downy mildew, spray test on potted grape plants; conditions: grape (Neomuscat), 250 ppm spray 2.5 ml/pot before inoculation, 7 to 10 days after inoculation
[3] = system: cucumber anthracnose fungi (Colletotrichum orbiculare); experiment: Test Example H: cucumber anthracnose, spray test on potted cucumber plants; conditions: cucumber (Sagami Hanjiro), 250 ppm spray 2.5 ml/pot before inoculation, 6 to 10 days after inoculation
[4] = system: cabbage alternaria sooty spot fungi (Alternaia brassicicola); experiment: Test Example C: cabbage alternaria sooty spot, spray test on potted cabbage plants; conditions: cabbage (Shikidori), 250 ppm spray 2.5 ml/pot before inoculation, 2 to 3 days after inoculation

Measured: control value

CCn1c(-c2ccc(F)cc2Cl)c(Nc2ccccc2)cc(Br)c1=O [Compound 287]
> 50%: all assays above

CCn1c(-c2c(F)cc(F)cc2F)c(Nc2ccccc2)cc(Br)c1=O [Compound 111]
> 50%: all assays above

CCN(CC)c1cc(Cl)c(=O)n(CC)c1-c1c(F)cc(F)cc1F [Compound 98]
> 50%: all assays above

C#CCN(CC)c1cc(Cl)c(=O)n(CC(F)F)c1-c1c(F)cc(F)cc1F [Compound 159]
> 50%: all assays above

CCn1c(-c2c(F)cc(OCCOC)cc2F)c(N(C)C(C)C)cc(Cl)c1=O [Compound 244]
> 50%: all assays above

CCN(CC)c1cc(Br)c(=O)n(CC)c1-c1ccccc1F [compound 424]
> 50%: all assays above

C#CCN(C)c1cc(Cl)c(=O)n(CC)c1-c1ccc(F)cc1Cl [Compound 217]
> 50%: all assays above

CCn1c(-c2c(F)cc(F)cc2F)c(Nc2ccc(Cl)cc2)cc(Br)c1=O [Compound 122]
> 50%: all assays above

CC#CCN(CC)c1cc(Br)c(=O)n(CC)c1-c1c(F)cc(F)cc1F [Compound 148]
> 50%: all assays above

CCn1c(-c2c(F)cc(OC)cc2F)c(N(C)C(C)C)cc(Cl)c1=O [Compound 125]
> 50%: all assays above

CCN(c1cc(Cl)c(=O)n(CC)c1-c1c(F)cc(OC)cc1F)C(C)C [Compound 134]
> 50%: all assays above

CCn1c(-c2ccc(OC)cc2Cl)c(N(C)C)cc(Cl)c1=O [Compound 52]
> 50%: all assays above

CCNc1cc(Br)c(=O)n(CC)c1-c1c(F)cc(OC)cc1F [Compound 72]
> 50%: all assays above

CCn1c(-c2c(F)cccc2F)c(N(C)CC(F)(F)F)cc(Br)c1=O [Compound 200]
> 50%: all assays above

C=CCN(C)c1cc(Cl)c(=O)n(CC)c1-c1c(F)cc(F)cc1F [Compound 141]
> 50%: all assays above
